According to PubChem BioAssay AID540276 (National Center for Advancing Translational Sciences (NCATS), 2011):
The campaign covered roughly 300,000 compounds. About 5,400 (1.8%) were called active. Inconclusive results, whose numbers are uncertain, are shown with a selection of clear calls. Calls come from the whole dose curve; tested in HEK293 cells. Potencies of inconclusive entries are doubtful fits and often do not repeat.

Assay: qHTS for inhibitors of binding or entry into cells for Marburg Virus
Conditions: Marburg virus pseudotyped entry inhibition, cell reporter; activity change, negative = inhibition: at 37.8 µM (top of the series) unless noted
% is set by controls: 0 for no effect and ±100 for the full control effect; potency is the fitted concentration of half-maximal effect.

Row | Compound | Potency | activity change, negative = inhibition
1 | CN1C(=O)NC(=O)/C(=C/c2ccc([N+](=O)[O-])o2)C1=O | inconclusive: 4.47 µM [inhibitor, single point] | –
2 | N#Cc1c(-c2ccco2)cc(-c2ccc(F)cc2)nc1N | inconclusive: 1.12 µM [inhibitor, single point] | –
3 | CCOC(=O)C1=NNC(C(=O)c2ccc(Cl)cc2)C1c1ccc(OC)cc1 (configuration not stated) | inconclusive: 3.16 µM [inhibitor, single point] | –
4 | CN(CC(=O)Nc1ccc(F)c(F)c1F)C(=O)C1=NN(c2ccccc2)C(=O)CC1 | – | inactive: -2.67%
5 | Cc1cc[n+](-c2[nH]c(=O)sc2/C=N/N=C(\[O-])c2ccccc2)cc1 | – | inactive: -0.0726% [at 46.1 µM]
6 | Cc1cc(Br)c(OCc2ccc(C(=O)N/N=C3\CC4CC=CC34)cc2)c(Br)c1 (configuration not stated) | inconclusive: 0.355 µM [inhibitor, partial curve, poor fit] | –
7 | CC(C)C[C@H](N)c1nnc(S(=O)(=O)Cc2ccc(F)cc2)o1 | inconclusive: 35.5 µM [inhibitor, single point] | –
8 | CC(=O)c1cnn(-c2ccccc2)c1C | inconclusive: 20 µM [activator, partial curve, poor fit] | –
9 | CCCCCCCCCCCC(=O)NC(C(=O)OCC)C(O)c1cccc([N+](=O)[O-])c1 (configuration not stated) | active: 11.2 µM | –
10 | NS(=O)(=O)c1ccc(N2CCN(S(=O)(=O)Cc3ccccc3)CC2)nc1 | – | inactive: -20.8% [at 46.1 µM]
11 | Cc1nc(N/N=C/c2ccccn2)sc1C | active: 1.3 µM | –
12 | Cc1cc(C(=O)OCC(=O)Nc2cccc(S(N)(=O)=O)c2)c2ccccc2n1 | – | inactive: 15.5% [at 46.1 µM]
13 | CCCN1/C(=C(\C#N)C2=NS(=O)(=O)c3ccccc32)N(C)c2ccccc21 | – | inactive: -9.93% [at 46.1 µM]
14 | CCCCOC(=O)c1cc(=O)[nH]c2ccc(C)cc12 | – | inactive: -5.6% [at 46.1 µM]
15 | CCCNS(=O)(=O)c1ccc(CCC(=O)Nc2ccc3c(c2)OCO3)cc1 | inconclusive: 4.11 µM [inhibitor, single point] | –
16 | COc1cc2c(cc1OC)C(COc1ccc3c(C)cc(=O)oc3c1)N(C(=O)Cc1ccccc1)CC2 (configuration not stated) | inconclusive: 1.78 µM [inhibitor, partial curve, poor fit] | –
17 | CC(C)(C)C(=O)c1cnc(Nc2ccccc2Cl)s1 | – | inactive: 0.16%
18 | O=C(NCCN1CCCCC1)c1c(O)c2ccccc2[nH]c1=O | inconclusive: 22.4 µM [activator, single point] | –
19 | OC1C[N+]2(CCCCC2)C1 | – | inactive: -0.0057%
20 | OCCN1CCN(c2cc(-c3ccccc3)c3ccccc3n2)CC1 | inconclusive: 35.5 µM [inhibitor, single point] | –
21 | CCN(C(=O)CCc1nc(-c2ccc(C)cc2)no1)c1cccc(Cl)c1 | – | inactive: -9.43% [at 46.1 µM]
22 | Cc1csc(Nc2cccc3ccccc23)n1 | inconclusive: 35.5 µM [inhibitor, single point] | –
23 | Cc1cc(C(=O)CCl)c(C)n1-c1ccon1 | inconclusive: 20 µM [inhibitor, partial curve, poor fit] | –
24 | Cc1ccccc1NC(=O)c1nc(S(C)(=O)=O)ncc1N(Cc1ccco1)Cc1sccc1C | inconclusive: 35.5 µM [inhibitor, single point] | –

Exported with tabs: entries from further up
Row	Compound	Potency	activity change, negative = inhibition
7	CC(C)C[C@H](N)c1nnc(S(=O)(=O)Cc2ccc(F)cc2)o1	inconclusive: 35.5 µM [inhibitor, single point]	–
8	CC(=O)c1cnn(-c2ccccc2)c1C	inconclusive: 20 µM [activator, partial curve, poor fit]	–

Remaining list, next part.

Row | Compound | Potency | activity change, negative = inhibition
25 | O=C(COC(=O)c1nsc(Cl)c1Cl)NC1CCCCC1 | – | inactive: -13.8% [at 46.1 µM]
26 | O=C1CCSc2ccc(Cl)cc2N1Cc1ccc(Cl)cc1 | inconclusive: 35.5 µM [inhibitor, single point] | –
27 | Cc1cc(C(=O)CSc2nc3ccccc3[nH]2)c(C)n1Cc1ccco1 | inconclusive: 11.2 µM [inhibitor, partial curve, poor fit] | –
28 | CCN(CC)C1=C(Cl)C(=O)C(Cl)C12OCCO2 (configuration not stated) | inconclusive: 0.316 µM [activator, partial curve, poor fit] | –
29 | Cc1ccc(-c2nc(NC(=O)CSc3ccc4ccccc4n3)ns2)cc1 | inconclusive: 5.62 µM [activator, single point] | –
30 | COc1ccc(CN(C)C(=O)c2cc(-c3ccccc3)nc3ccc(C)cc23)c(OC)c1OC | inconclusive: 12.6 µM [inhibitor, partial curve, poor fit] | –
31 | COc1ccc(CC(=O)Nc2cc(Cl)ccc2N2CCCC2)cc1 | inconclusive: 11.2 µM [inhibitor, partial curve] | –
32 | COc1cccc(C2/C(=C(/O)c3ccccc3)C(=O)C(=O)N2Cc2ccco2)c1 (configuration not stated) | – | inactive: -4.28% [at 46.1 µM]
33 | CCNS(=O)(=O)c1ccc(C(=O)Nc2ccccc2)cc1 | – | inactive: 7.31%
34 | COc1ccc(C(=O)Nc2ccc(Cl)c(S(=O)(=O)Nc3ccccc3OC)c2)cc1 | active: 2.82 µM | –
35 | Cc1ccc(NS(=O)(=O)c2cc3c4c(cccc4c2)C(=O)NC3=O)cc1 | inconclusive: 10 µM [inhibitor, partial curve, poor fit] | –
36 | COc1ccc2[nH]c(=O)c(CN(C(=O)NC3CCCCC3)C3CCCCC3)cc2c1 | – | inactive: 8.19%
37 | CCC(C(=O)Nc1ccc(C(C)C)cc1)n1nc(C)n2c(cc3cc(C)ccc32)c1=O (configuration not stated) | inconclusive: 4.47 µM [inhibitor, single point] | –
38 | CCOC(=O)C1=C(CCl)NC(=O)NC1c1ccc2c(c1)OCO2 (configuration not stated) | inconclusive: 35.5 µM [inhibitor, single point] | –
39 | O=C(CNC(=O)c1ccc(Br)o1)NCc1ccc(Cl)cc1 | inconclusive: 8.91 µM [inhibitor, partial curve, poor fit] | –
40 | CCN(Cc1cn2cccnc2n1)C1CCCCC1 | – | inactive: 9.86% [at 46.1 µM]
41 | COc1ccc(NC(=S)NC2CCN(Cc3ccccc3)CC2)cc1OC | inconclusive: 35.5 µM [inhibitor, single point] | –
42 | O=C(Nc1ccc(-c2nc3ccccc3o2)cc1)c1cc(-n2cnnc2)ccc1Cl | inconclusive: 29.1 µM [inhibitor, partial curve, poor fit] | –
43 | COc1cc(/C=N/Nc2nc3ccccc3[nH]2)cc(OC)c1O | inconclusive: 3.98 µM [inhibitor, partial curve, poor fit] | –
44 | O=C(NCCS(=O)(=O)N1CCN(Cc2ccccc2)CC1)c1ccc(F)cc1 | inconclusive: 8.91 µM [inhibitor, partial curve, poor fit] | –
45 | O=C(NC(=S)NCCc1ccccc1)C1CCCCC1 | inconclusive: 1.58 µM [activator, partial curve] | –
46 | Cc1ccc(S(=O)(=O)CCC(=O)NCc2ccccc2)cc1 | – | inactive: -28%
47 | O=C(C1CC(=O)N(c2ccc(F)cc2)C1)N1CCCCCC1 (configuration not stated) | – | inactive: -3.53% [at 46.1 µM]
48 | Cc1cc(NC(=O)/C=C/c2cccc(Cl)c2)n(-c2nc3ccccc3[nH]2)n1 | inconclusive: 7.08 µM [inhibitor, partial curve, poor fit] | –

Row | Compound | Potency | activity change, negative = inhibition
49 | Cc1nc(C(=O)N2CCc3c([nH]c4ccccc34)C2c2ccccn2)cs1 (configuration not stated) | – | inactive: -29.7% [at 46.1 µM]
50 | COCc1cc(=O)[nH]c(/N=C(\N)Nc2cccc(Cl)c2)n1 | inconclusive: 6.31 µM [inhibitor, partial curve, poor fit] | –
51 | COc1ccc(C(=O)Nc2ccccc2C(=O)NCC2CCCO2)cc1 (configuration not stated) | – | inactive: 25.7%
52 | CCc1cc(C(=O)OC)c(NC(=O)CC2Sc3ccc(C(F)(F)F)cc3NC2=O)s1 (configuration not stated) | inconclusive: 7.08 µM [activator, partial curve] | –
53 | COC(=O)c1ccc(C2NCCc3cc(OC)c(OC)cc32)cc1 (configuration not stated) | inconclusive: 10 µM [inhibitor, partial curve, poor fit] | –
54 | Cc1ccc(NC2CC(=O)N(CCc3ccccc3)C2=O)cc1 (configuration not stated) | inconclusive: 25.9 µM [activator, partial curve, poor fit] | –
55 | COc1cccc(Cn2c(Oc3cccc(C)c3)nc3c2c(=O)n(C)c(=O)n3C)c1 | inconclusive: 7.94 µM [inhibitor, partial curve, poor fit] | –
56 | COc1ccc(NC(=O)N2CCCC2C(=O)NCc2ccccc2Cl)cc1 (configuration not stated) | – | inactive: 0.978%
57 | COc1ccccc1CNC(=O)C(Cc1c[nH]c2ccccc12)NC(=O)OCc1ccccc1 (configuration not stated) | inconclusive: 32.6 µM [inhibitor, single point] | –
58 | CCCOC(=O)c1ccc(Oc2coc3c(CN(CC)CC)c(O)ccc3c2=O)cc1 | – | inactive: -5.33%
59 | N#Cc1ccccc1OCC(=O)OCC(=O)NC1CCCC1 | inconclusive: 35.5 µM [inhibitor, single point] | –
60 | Cc1ccnc(SCc2cc(=O)c(OC(=O)c3cccs3)co2)n1 | inconclusive: 1.58 µM [activator, full curve] | –
61 | CC(=O)c1ccc(NC(=O)COC(=O)c2ccccc2Sc2ccccc2C#N)cc1 | – | inactive: 20.3%
62 | CCOC(=O)c1c(NC(=O)COc2ncnc3ccccc23)sc(C(C)=O)c1C | – | inactive: -30.5%
63 | CCN(CC(=O)Nc1cccc(C(C)=O)c1)S(=O)(=O)c1ccc(C)cc1 | inconclusive: 20 µM [inhibitor, partial curve, poor fit] | –
64 | Cc1cc(NC(=O)c2ccco2)sc1C | inconclusive: 3.98 µM [activator, partial curve, poor fit] | –
65 | COc1ccccc1CCC(=O)OCC(=O)Nc1ccc2[nH]c(=O)[nH]c2c1 | – | inactive: 21.8%
66 | COc1ccc(-c2nc(N)ncc2-c2ccc(OC)c(OC)c2)c(O)c1 | inconclusive: 10 µM [inhibitor, partial curve, poor fit] | –
67 | Cn1cccc1CC(=O)N/N=C/c1cccc2ccccc12 | – | inactive: 4.91% [at 46.1 µM]
68 | Cc1c(N=C2C=CC(=O)c3ccccc32)c(=O)n(-c2ccccc2)n1C | inconclusive: 10 µM [inhibitor, partial curve, poor fit] | –
69 | O=C(NC(=S)NCc1ccccc1)c1ccccc1 | – | inactive: -13.7% [at 46.1 µM]
70 | Cc1ccc(/C=N/N2CCCCC2)o1 | inconclusive: 0.891 µM [activator, full curve, poor fit] | –
71 | CS(=O)(=O)Cc1cccc(C(=O)NC2CCSc3ccccc32)c1 (configuration not stated) | – | inactive: 1.8%
72 | COP(=O)(OC)c1nc(-c2ccccc2)oc1N1CCOCC1 | inconclusive: 0.447 µM [inhibitor, full curve, poor fit] | –

Full records as entered above. Values in the order: Potency	activity change, negative = inhibition
CS(=O)(=O)Cc1cccc(C(=O)NC2CCSc3ccccc32)c1 (configuration not stated) in the list: –	inactive: 1.8%
COC(=O)c1ccc(C2NCCc3cc(OC)c(OC)cc32)cc1 (configuration not stated) in the list: inconclusive: 10 µM [inhibitor, partial curve, poor fit]	–
COP(=O)(OC)c1nc(-c2ccccc2)oc1N1CCOCC1 in the list: inconclusive: 0.447 µM [inhibitor, full curve, poor fit]	–
